In PMC11864945 (Frontiers in Pharmacology, 2025):

Legend:
[1] = Stability of the analytes in beagle dog plasma (bench top, refrigerator, freeze–thaw, autosampler, short and long term storage); assay type: physicochemical; conditions: for Mean stability sample ±SD: n = 5
[2] = beagle, dog, in vivo
[3] = autosampler, 6°C, 55 h, processed plasma samples, HQC
[4] = autosampler, 6°C, 55 h, processed plasma samples, LQC
[5] = freeze–thaw after 3rd cycle at −80°C, dog plasma, HQC
[6] = freeze–thaw after 3rd cycle at −80°C, dog plasma, LQC
[7] = long term, −80°C, 120 days, dog plasma, HQC
[8] = long term, −80°C, 120 days, dog plasma, LQC
[9] = refrigerator, 4°C, 30 h, dog plasma, HQC
[10] = short term, −20°C, 48 h, dog plasma, HQC
[11] = short term, −20°C, 48 h, dog plasma, LQC

Accuracy [1, 3]: 106.65%
Mean stability sample ±SD [1, 3]: 95.98 ± 3.18 ng/mL
Accuracy [1, 4]: 107.01%
Mean stability sample ±SD [1, 4]: 6.42 ± 0.40 ng/mL
Mean stability sample ±SD ([1]; bench top, room temperature, 8 h, dog plasma, HQC (added 180 ng/mL PYR/OXF, 675 PRA, 90 FBT, 450 FEN)): 88.24 ± 1.25 ng/mL
Accuracy ([1]; bench top, room temperature, 8 h, dog plasma, HQC, % of nominal concentration): 98.05%
Mean stability sample ±SD ([1]; bench top, room temperature, 8 h, dog plasma, LQC (added 12 ng/mL PYR/OXF, 45 PRA, 6 FBT, 30 FEN)): 6.10 ± 0.38 ng/mL
Accuracy ([1]; bench top, room temperature, 8 h, dog plasma, LQC, % of nominal concentration): 101.59%
Accuracy [1, 5]: 98.12%
Mean stability sample ±SD [1, 5]: 88.31 ± 1.14 ng/mL
Accuracy [1, 6]: 102.52%
Mean stability sample ±SD [1, 6]: 6.15 ± 0.48 ng/mL
Accuracy [1, 7]: 99.52%
Mean stability sample ±SD [1, 7]: 89.57 ± 3.12 ng/mL
Accuracy [1, 8]: 97.70%
Mean stability sample ±SD [1, 8]: 5.86 ± 0.22 ng/mL
Accuracy [1, 9]: 97.41%
Mean stability sample ±SD [1, 9]: 87.67 ± 3.15 ng/mL
Mean stability sample ±SD ([1]; refrigerator, 4°C, 30 h, dog plasma, LQC): 5.78 ± 0.56 ng/mL
Accuracy [1, 10]: 100.85%
Mean stability sample ±SD [1, 10]: 90.76 ± 4.24 ng/mL
Accuracy [1, 11]: 96.29%
Mean stability sample ±SD [1, 11]: 5.75 ± 0.51 ng/mL
GMR (Test/Reference) of Cmax [2]: 98.40%
Structure (SMILES): COCC(=O)Nc1cc(Sc2ccccc2)ccc1N/C(=N\C(=O)OC)NC(=O)OC [Febantel, febantel]
